{"source": "the supplement of paper PMC11438910", "binders": {"B1": {"name": "4-80.3 (protein)", "chain 1": "QVQLQESGPGLVKPSETLSLTCAVSGGSFSSYWWSWIRQPPGKGLEWIGEINGNSGSTNYNPSLKSRVTISKDASKNQFSLKLSSVTAADTAVYYCARYKNVWGRGVLVTVSS", "chain 2": "DVVMTQSPLSLPITPGQPASISCRSSQSLVHSNGNTYLSWYQQKPGQPPRRLIYQVSNRDSGVPDRFSGSGAGTDFTLKISRVEAEDVGVYYCGQGTNVPTFGQGTKVEIK"}}, "assay_in_all_cases": "fluorescence intensity of antibody binding to polysaccharide-coupled beads; higher = stronger binding", "key": {"[1]": {"molecular_target": "pneumococcal polysaccharide C-Poly-1"}, "[2]": {"molecular_target": "pneumococcal polysaccharide C-Poly-2"}, "[3]": {"molecular_target": "pneumococcal polysaccharide Pn1"}, "[4]": {"molecular_target": "pneumococcal polysaccharide Pn10A"}, "[5]": {"molecular_target": "pneumococcal polysaccharide Pn10B"}, "[6]": {"molecular_target": "pneumococcal polysaccharide Pn10C"}, "[7]": {"molecular_target": "pneumococcal polysaccharide Pn10F"}, "[8]": {"molecular_target": "pneumococcal polysaccharide Pn11A"}, "[9]": {"molecular_target": "pneumococcal polysaccharide Pn11B"}, "[10]": {"molecular_target": "pneumococcal polysaccharide Pn11C"}, "[11]": {"molecular_target": "pneumococcal polysaccharide Pn11D"}, "[12]": {"molecular_target": "pneumococcal polysaccharide Pn11F"}, "[13]": {"conditions": "antibody concentration 0.1 ng/mL"}, "[14]": {"conditions": "antibody concentration 0.534724 ng/mL"}, "[15]": {"conditions": "antibody concentration 2.8593 ng/mL"}, "[16]": {"conditions": "antibody concentration 15.2894 ng/mL"}, "[17]": {"conditions": "antibody concentration 81.7561 ng/mL"}, "[18]": {"conditions": "antibody concentration 437.17 ng/mL"}, "[19]": {"conditions": "antibody concentration 2337.65 ng/mL"}, "[20]": {"conditions": "antibody concentration 12500 ng/mL"}}, "note": "Some of the results follow. The signal is at background level for most entries."}
{"binder": "B1", "values": [{"measurement": "fluorescence intensity", "setting": "[1]; [13]", "result": 23.5, "unit": "MFI"}, {"measurement": "fluorescence intensity", "setting": "[1]; [14]", "result": 28.8, "unit": "MFI"}, {"measurement": "fluorescence intensity", "setting": "[1]; [15]", "result": 26.5, "unit": "MFI"}, {"measurement": "fluorescence intensity", "setting": "[1]; [16]", "result": 28.5, "unit": "MFI"}, {"measurement": "fluorescence intensity", "setting": "[1]; [17]", "result": 28.2, "unit": "MFI"}, {"measurement": "fluorescence intensity", "setting": "[1]; [18]", "result": 46.8, "unit": "MFI"}, {"measurement": "fluorescence intensity", "setting": "[1]; [19]", "result": 176, "unit": "MFI"}, {"measurement": "fluorescence intensity", "setting": "[1]; [20]", "result": 1040, "unit": "MFI"}, {"measurement": "fluorescence intensity", "setting": "[2]; [13]", "result": 20.5, "unit": "MFI"}, {"measurement": "fluorescence intensity", "setting": "[2]; [14]", "result": 21.5, "unit": "MFI"}, {"measurement": "fluorescence intensity", "setting": "[2]; [15]", "result": 21.5, "unit": "MFI"}, {"measurement": "fluorescence intensity", "setting": "[2]; [16]", "result": 21, "unit": "MFI"}, {"measurement": "fluorescence intensity", "setting": "[2]; [17]", "result": 24.8, "unit": "MFI"}, {"measurement": "fluorescence intensity", "setting": "[2]; [18]", "result": 39.5, "unit": "MFI"}, {"measurement": "fluorescence intensity", "setting": "[2]; [19]", "result": 147, "unit": "MFI"}, {"measurement": "fluorescence intensity", "setting": "[2]; [20]", "result": 887, "unit": "MFI"}, {"measurement": "fluorescence intensity", "setting": "[3]; [13]", "result": 12.5, "unit": "MFI"}, {"measurement": "fluorescence intensity", "setting": "[3]; [14]", "result": 13.2, "unit": "MFI"}, {"measurement": "fluorescence intensity", "setting": "[3]; [15]", "result": 15.2, "unit": "MFI"}, {"measurement": "fluorescence intensity", "setting": "[3]; [16]", "result": 15.5, "unit": "MFI"}, {"measurement": "fluorescence intensity", "setting": "[3]; [17]", "result": 13.2, "unit": "MFI"}, {"measurement": "fluorescence intensity", "setting": "[3]; [18]", "result": 19.2, "unit": "MFI"}, {"measurement": "fluorescence intensity", "setting": "[3]; [19]", "result": 40.8, "unit": "MFI"}, {"measurement": "fluorescence intensity", "setting": "[3]; [20]", "result": 175, "unit": "MFI"}, {"measurement": "fluorescence intensity", "setting": "[4]; [13]", "result": 26.5, "unit": "MFI"}, {"measurement": "fluorescence intensity", "setting": "[4]; [14]", "result": 26.8, "unit": "MFI"}, {"measurement": "fluorescence intensity", "setting": "[4]; [15]", "result": 25.8, "unit": "MFI"}, {"measurement": "fluorescence intensity", "setting": "[4]; [16]", "result": 26.5, "unit": "MFI"}, {"measurement": "fluorescence intensity", "setting": "[4]; [17]", "result": 28, "unit": "MFI"}, {"measurement": "fluorescence intensity", "setting": "[4]; [18]", "result": 28.2, "unit": "MFI"}, {"measurement": "fluorescence intensity", "setting": "[4]; [19]", "result": 46.5, "unit": "MFI"}, {"measurement": "fluorescence intensity", "setting": "[4]; [20]", "result": 159, "unit": "MFI"}, {"measurement": "fluorescence intensity", "setting": "[5]; [13]", "result": 22.2, "unit": "MFI"}, {"measurement": "fluorescence intensity", "setting": "[5]; [14]", "result": 25.2, "unit": "MFI"}, {"measurement": "fluorescence intensity", "setting": "[5]; [15]", "result": 26, "unit": "MFI"}, {"measurement": "fluorescence intensity", "setting": "[5]; [16]", "result": 23.5, "unit": "MFI"}, {"measurement": "fluorescence intensity", "setting": "[5]; [17]", "result": 23.8, "unit": "MFI"}, {"measurement": "fluorescence intensity", "setting": "[5]; [18]", "result": 23.5, "unit": "MFI"}, {"measurement": "fluorescence intensity", "setting": "[5]; [19]", "result": 29.5, "unit": "MFI"}, {"measurement": "fluorescence intensity", "setting": "[5]; [20]", "result": 49.5, "unit": "MFI"}, {"measurement": "fluorescence intensity", "setting": "[6]; [13]", "result": 15, "unit": "MFI"}, {"measurement": "fluorescence intensity", "setting": "[6]; [14]", "result": 18, "unit": "MFI"}, {"measurement": "fluorescence intensity", "setting": "[6]; [15]", "result": 16.5, "unit": "MFI"}, {"measurement": "fluorescence intensity", "setting": "[6]; [16]", "result": 16.2, "unit": "MFI"}, {"measurement": "fluorescence intensity", "setting": "[6]; [17]", "result": 16, "unit": "MFI"}, {"measurement": "fluorescence intensity", "setting": "[6]; [18]", "result": 16, "unit": "MFI"}, {"measurement": "fluorescence intensity", "setting": "[6]; [19]", "result": 21.2, "unit": "MFI"}, {"measurement": "fluorescence intensity", "setting": "[6]; [20]", "result": 37.2, "unit": "MFI"}, {"measurement": "fluorescence intensity", "setting": "[7]; [13]", "result": 19, "unit": "MFI"}, {"measurement": "fluorescence intensity", "setting": "[7]; [14]", "result": 20.2, "unit": "MFI"}, {"measurement": "fluorescence intensity", "setting": "[7]; [15]", "result": 18.5, "unit": "MFI"}, {"measurement": "fluorescence intensity", "setting": "[7]; [16]", "result": 18, "unit": "MFI"}, {"measurement": "fluorescence intensity", "setting": "[7]; [17]", "result": 20.5, "unit": "MFI"}, {"measurement": "fluorescence intensity", "setting": "[7]; [18]", "result": 21, "unit": "MFI"}, {"measurement": "fluorescence intensity", "setting": "[7]; [19]", "result": 23.8, "unit": "MFI"}, {"measurement": "fluorescence intensity", "setting": "[7]; [20]", "result": 30.5, "unit": "MFI"}, {"measurement": "fluorescence intensity", "setting": "[8]; [13]", "result": 29.5, "unit": "MFI"}, {"measurement": "fluorescence intensity", "setting": "[8]; [14]", "result": 32, "unit": "MFI"}, {"measurement": "fluorescence intensity", "setting": "[8]; [15]", "result": 29.8, "unit": "MFI"}, {"measurement": "fluorescence intensity", "setting": "[8]; [16]", "result": 29, "unit": "MFI"}, {"measurement": "fluorescence intensity", "setting": "[8]; [17]", "result": 30.8, "unit": "MFI"}, {"measurement": "fluorescence intensity", "setting": "[8]; [18]", "result": 36.2, "unit": "MFI"}, {"measurement": "fluorescence intensity", "setting": "[8]; [19]", "result": 48, "unit": "MFI"}, {"measurement": "fluorescence intensity", "setting": "[8]; [20]", "result": 116, "unit": "MFI"}, {"measurement": "fluorescence intensity", "setting": "[9]; [13]", "result": 25, "unit": "MFI"}, {"measurement": "fluorescence intensity", "setting": "[9]; [14]", "result": 24, "unit": "MFI"}, {"measurement": "fluorescence intensity", "setting": "[9]; [15]", "result": 28.5, "unit": "MFI"}, {"measurement": "fluorescence intensity", "setting": "[9]; [16]", "result": 24.8, "unit": "MFI"}, {"measurement": "fluorescence intensity", "setting": "[9]; [17]", "result": 27.8, "unit": "MFI"}, {"measurement": "fluorescence intensity", "setting": "[9]; [18]", "result": 31.8, "unit": "MFI"}, {"measurement": "fluorescence intensity", "setting": "[9]; [19]", "result": 37, "unit": "MFI"}, {"measurement": "fluorescence intensity", "setting": "[9]; [20]", "result": 49.8, "unit": "MFI"}, {"measurement": "fluorescence intensity", "setting": "[10]; [13]", "result": 24, "unit": "MFI"}, {"measurement": "fluorescence intensity", "setting": "[10]; [14]", "result": 23.2, "unit": "MFI"}, {"measurement": "fluorescence intensity", "setting": "[10]; [15]", "result": 23, "unit": "MFI"}, {"measurement": "fluorescence intensity", "setting": "[10]; [16]", "result": 23, "unit": "MFI"}, {"measurement": "fluorescence intensity", "setting": "[10]; [17]", "result": 23.8, "unit": "MFI"}, {"measurement": "fluorescence intensity", "setting": "[10]; [18]", "result": 28.2, "unit": "MFI"}, {"measurement": "fluorescence intensity", "setting": "[10]; [19]", "result": 94.5, "unit": "MFI"}, {"measurement": "fluorescence intensity", "setting": "[10]; [20]", "result": 620, "unit": "MFI"}, {"measurement": "fluorescence intensity", "setting": "[11]; [13]", "result": 25.5, "unit": "MFI"}, {"measurement": "fluorescence intensity", "setting": "[11]; [14]", "result": 26.5, "unit": "MFI"}, {"measurement": "fluorescence intensity", "setting": "[11]; [15]", "result": 22.5, "unit": "MFI"}, {"measurement": "fluorescence intensity", "setting": "[11]; [16]", "result": 24, "unit": "MFI"}, {"measurement": "fluorescence intensity", "setting": "[11]; [17]", "result": 22.2, "unit": "MFI"}, {"measurement": "fluorescence intensity", "setting": "[11]; [18]", "result": 26, "unit": "MFI"}, {"measurement": "fluorescence intensity", "setting": "[11]; [19]", "result": 53, "unit": "MFI"}, {"measurement": "fluorescence intensity", "setting": "[11]; [20]", "result": 328, "unit": "MFI"}, {"measurement": "fluorescence intensity", "setting": "[12]; [13]", "result": 14.5, "unit": "MFI"}, {"measurement": "fluorescence intensity", "setting": "[12]; [14]", "result": 14, "unit": "MFI"}]}
